According to patent US9340584:
These are yes or no findings as the source states them, for the method shown. Some binding calls cover weakened binding; strength is not graded here.

Sequences of proteins named here, by UniProt entry; tags and fusion partners are left off. Residues count along the entry.
UniProt P06127, residues 25-495: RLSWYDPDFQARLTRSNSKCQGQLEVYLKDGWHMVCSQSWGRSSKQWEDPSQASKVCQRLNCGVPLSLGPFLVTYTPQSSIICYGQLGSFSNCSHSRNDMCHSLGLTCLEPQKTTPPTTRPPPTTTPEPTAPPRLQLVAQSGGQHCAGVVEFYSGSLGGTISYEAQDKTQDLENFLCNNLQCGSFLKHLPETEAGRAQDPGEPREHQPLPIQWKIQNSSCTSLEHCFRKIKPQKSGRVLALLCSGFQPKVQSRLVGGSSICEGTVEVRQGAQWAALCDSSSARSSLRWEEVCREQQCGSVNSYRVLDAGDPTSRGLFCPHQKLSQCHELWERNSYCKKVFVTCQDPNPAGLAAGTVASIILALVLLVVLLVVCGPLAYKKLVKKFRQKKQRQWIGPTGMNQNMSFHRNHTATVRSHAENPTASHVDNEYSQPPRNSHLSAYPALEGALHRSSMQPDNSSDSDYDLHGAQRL

How the values were obtained:
[1] = target: ECD-CD5-SBP-H8; experiment: phage display selection from TRX-3 library
[2] = target: CD5 expressed on the cell surface (transfected HEK293T cells; Raji cells ectopically expressing wild type CD5) (UniProt P06127); experiment: cell-based phage ELISA, transfected HEK293T cells
[3] = target: ECD-CD5-SBP-H8; experiment: phage ELISA, biotinylated CD5 on streptavidin plate
[4] = target: ECD-CD5-SBP-H8; experiment: phage display selection on bead-immobilised biotinylated ECD-CD5-SBP-H8
[5] = target: CD5 expressed on the cell surface (transfected HEK293T cells; Raji cells ectopically expressing wild type CD5) (UniProt P06127); experiment: flow cytometry on Raji cells
[6] = target: CD5 expressed on the cell surface (transfected HEK293T cells; Raji cells ectopically expressing wild type CD5) (UniProt P06127); experiment: flow cytometry, fluorescein-labelled protein on Raji cells

Measured: binding

B1: CD5 binder E6 (TRX-3 library), phage-displayed (designed binder)
chain: MVKQIESKTAFQEALDAAGDKLVVVDFSATNTIKHGGSRWSGPSKMIKPFFHSLSEKYSNVIFLEVDVDDAQDVASEAEKGILVSPLPTFQFFKKGQKVGEFSGANKEKLEATINELV
binds: [1] | [2] | [3] | [4]

B2: free E6 protein (CD5 binder E6, purified) (designed binder)
chain: B1 chain
modifications: labelled with NHS-fluorescein (sites not given)
binds: [5] | [6]
